The results are deposited in PubChem (AID1159506; NCATS, 2015).

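Luminescence from an EWS-FLI1 target-promoter (NR0B1) reporter, set against a CMV-promoter reporter, two days after silencing single genes in TC32 Ewing sarcoma cells. Each siRNA was applied at 20 nM. A z-score of the log NR0B1-over-CMV signal, less the median of siRNAs with the same seed; more negative means a stronger specific loss of the NR0B1 reporter.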

The strongest results of the screen are mostly left out here. Sequences are the guide (antisense) strand, without overhang.

siRNA	gene	seed-corrected z-score
UUCGAUAAUACUGAUUUCU	C8orf22	-0.2658
UUAGAUUGGGAAUUAUACC	CHODL	0.0895
UUAGUGAUGAGGUCCAGUU	FAM83C	1.674
UAUCGAUGCACAUAUUCAG	GLS	-0.08278
UCCCAUAUCUUUACAGUCC	WDR49	-0.64
AUACUUAAUGUUGGUAGGG	CLDN7	-0.2555
UUUGAUUUUAGACGCAGCG	LILRA3	0.3059
UGAGAAACAGUGGUGGACA	PMP22	-0.5523
UUUCUCACAAUAGCGGCAG	ZBTB4	0.7767
AAUACAUCUAGAACAAGCC	TMEM92	0.7685
UAAGGAGGUAGUAAAUAGU	WBP1L	-1.884
UUCAGAGUCUCCUUGAUGU	IRGM	0.5335
UUGGUAAUCAUAUAGAGCC	HCLS1	-0.1977
AAUCGUGUGAAAGAGAUCC	NECAB2	0.7298
AAAGUUCUCAGGAGUAAAG	PNPLA2	-0.36
UUGGUAUGUGGUCUGUUUC	TEX26	2.317
UGAUGAUAGAUAUCCUUCG	NXF1	1.469
UUGAGUUCUUCUAUCCUUC	MTA3	0.05441
AUCGUUCACAGGUUGGUCC	ITGB6	0.3745
UUUGUUGCAGCUGCGUCUC	NDE1	0.5716
UCAAAUACAUUAUUUGUCC	GSPT1	0.07225
UUUUUGGUCUUCAAGAUCC	KAZN	0.6867
UAUCCUGAACCAGUAAUCG	NDUFA10	0.0321
UUCAGGACAGAGACGAAGC	CCDC142	0.2763
UUCUGGAGAGGUAAUAUCC	TRIM21	-0.1383
UUAGUGAUUAGAAACUGCU	LOC440982	1.057
UUUCGCAUAGCAACCCUCC	CD53	0.2603
UCAUCUAGUAACUUUAACC	HPS5	-0.2801
AAAGAUGAACUCGAUCUCG	ACHE	0.08717
UAAUUUGUAUAUGAGACAG	DLGAP2	-0.7505
UCUCCAGUCAGCACUGUCU	STMN4	0.2063
UUGUGAUCUUUUAGUAUCU	SCRG1	0.5142
ACACUCAUCAGUGAUCUCC	MAPK8IP1	-0.5806
UUUGGUUCCGGUCAGCACU	PLIN4	-0.04897
UAGGAUCCCAUACCCGCUG	ZNF593	0.2411
UUAGUUAUGGGUGCCGAGC	CMTM3	-0.07296
UCAGUAUCUACAAUGGGAG	TNRC6B	1.564
AAUUUGAAACGCACUGUCU	CXXC4	0.5238
UAGGCGACAGUCUUUGUCC	DHX35	-0.8516
UACUGAUUACCAUCAAGCC	SIRT1	-0.1659
AAGUUGUUCACUAUACUCC	CREBRF	-0.3083
UGUGAUGAUAAAUAGCACG	UGT2B10	-0.1594
ACUGGGUACCCUGAUGUCC	R3HCC1	-0.3398
UGACGAAAAGAUUAACCGC	HIST1H4B	0.1349
UUUCUUUCCAUGGACCUGG	NEIL2	-0.6265
UAUAUGGUCACCAAAAUAC	NT5DC3	0.3842
UAUUCGUUCCACCAAACUC	DNAH12	0.3108
AAUGUGACACUUUUCCUCC	CCDC185	0.007331
UGUACUUAAAGAACAAGUC	PPP6R2	1.449
UCAGCUUAAAGUUCAGCAC	SMIM7	0.6909
CUGGCUGUCAUACACAUCU	IFNWP2	-0.4017
UGUGAGUCCUCACAAGUCC	RTN1	0.2699
UGUAGUACCAUGUGCACCU	RPUSD3	0.5767
UGUAGGUCCUUGACUCAUC	FAM53B	-0.4028
UCUAUGUACAGAGUAAGGC	KLF13	0.2305
UCUGAGUCAUCCACUCUCC	ZNF691	0.5364
UUAUCUUCCGGAUGUAGUC	MANF	0.5687
UUAGUGUCAGCAUUACUCC	GIGYF2	-1.205
UUUUGCAAGUGCAACAUCC	IZUMO1	0.3174
UAUUUCUCGCUAUCUUUGC	TBX1	-0.3956
UCCGUAGCAAUGUUGACCC	KLHL26	-1.148
UCUCUAUCCAGAAAAGGUG	DSC1	-0.08277
UUAAUUACACUCUCGAUCC	PAPD5	-0.2169
ACUGCUCCCAAAGAAAGCC	MOGS	0.9626
UCUGUUCGCAUCCUCGUGG	SPOCK1	-0.2807
AGCUUUAUUAUCAUGGCUG	RARRES2	-1.131
UUGCAGGACAUGACGGUGU	SECTM1	0.956
AACUCUACAAAACCUUUUC	PSPC1	0.1747
AACAGGAUAAGAGCAAUUG	ZBTB26	-1.587
UGUCUGGUCAUAGUAUUCU	TNFRSF1B	-0.5986
UCGAUGGUCACAAUUGGGC	IGFBP6	0.3209
UGCGUCCUUAGGAUGAUGC	FHOD3	-0.05417
UUCGAAACAAUUUCACAGC	IREB2	0.7357
UAACGGUCCUCAUAGUCAC	PRNP	-0.5516
UGCUUCAAAAAUGUAACCC	SOX18	-0.314
UUAGGGCAAAGUACUGUCG	TRIM39	0.3669
AAGAGGCUCAUGGUUACCC	CENPBD1P1	-1.039
UUAUCUCUCACAGCUAAGA	BPIFA1	0.01969
UCUGUGACAGGUAUGGUGG	PITRM1	-0.9009
AGCAGUAUCAAUAUCAAGG	DCUN1D5	0.07901

Some entries from above, unchanged:

- UCUAUGUACAGAGUAAGGC against KLF13 : seed-corrected z-score 0.2305
- UAAUUUGUAUAUGAGACAG against DLGAP2 : seed-corrected z-score -0.7505
- UUUCGCAUAGCAACCCUCC against CD53 : seed-corrected z-score 0.2603
- AAUCGUGUGAAAGAGAUCC against NECAB2 : seed-corrected z-score 0.7298
- UCAGUAUCUACAAUGGGAG against TNRC6B : seed-corrected z-score 1.564
- CUGGCUGUCAUACACAUCU against IFNWP2 : seed-corrected z-score -0.4017
- UAUUUCUCGCUAUCUUUGC against TBX1 : seed-corrected z-score -0.3956
- UUUCUCACAAUAGCGGCAG against ZBTB4 : seed-corrected z-score 0.7767
- AAGAGGCUCAUGGUUACCC against CENPBD1P1 : seed-corrected z-score -1.039